Experimental data as given in US20250019339A1, “SOLVENT COMPOUNDS FOR USE AS REPLACEMENTS FOR SLOW EVAPORATING SOLVENTS” (TBF ENVIRONMENTAL TECHNOLOGY INC., priority 2018, published 2025).
The name of at least one read-out is uncertain.

Assay: Solubilization tests
Assay type: physicochemical
Settings: materials of Table 1: chlorinated rubber, Hypalon, Kraton 1726X, Sukorez 100, Globalprene 5516 and 9551, Palmer Asphalt, thermoplastic acrylics, alkyd resins, grease, motor oils, paraffin wax

CCCCC(CC)COC(=O)OC (stereo not shown) [BibaSol, 2-ethylhexyl methyl carbonate]
Solubilization of materials by the solvent: solubilized
